# Results of single-concentration screens

Mtb glucose medium: 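Phenotypic screen: M. tuberculosis growth, glucose 7H9 medium, 3 days; the read-out is not stated. Compounds at 50 µM. Direction is inferred from retests: higher values go with more growth inhibition. About 69,000 compounds were tested under these conditions; 1.1% (about 760) showed 50% or more at least once.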
Mtb cholesterol medium: 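Phenotypic screen: M. tuberculosis growth, cholesterol and DPPC medium, 4 days; the read-out is not stated. Concentration: 50 µM. Higher reads as more growth inhibition (inferred: compounds with an IC50 in retests scored well above the rest). About 69,000 compounds were tested under these conditions; 0.54% (about 370) showed 50% or more at least once.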

The filed quantity is “Percent Effect” (%).
The record does not define 0% and 100%; most values in the screen are far below 50% and negative numbers occur (in some assays of this library far below -100).
This is an unselected part of the compounds tested.
Two or more numbers in one place are separate tests of the same structure; such repeats can differ widely.

Result for O=C(COc1ccc(Cl)cc1)Nc1cnc(N2CCOCC2)nc1 was Mtb glucose medium: -3.958%; Mtb cholesterol medium: 16.55%.
Result for O=C(NCc1ccccc1OCCO)Nc1ccc2c(c1)CCC2 was Mtb glucose medium: -5.971%; Mtb cholesterol medium: 5.619%.
Result for COCCNc1cc(-c2ccccc2C(N)=O)c2cc[nH]c2n1 was Mtb glucose medium: 2.095%; Mtb cholesterol medium: 1.373%.
Result for O=C(O)c1nnn(Cc2cccc(C(F)(F)F)c2)c1-c1ccncc1 was Mtb glucose medium: 7.091%; Mtb cholesterol medium: 10.27% & -6.122%.
Result for Cc1nc(COCc2nc3c(o2)CN(C(=O)c2ccoc2)C3)cs1 was Mtb glucose medium: -8.99% & -53%; Mtb cholesterol medium: -21.64%.
Result for Cc1cccc(-c2nnn3c2COC(CNC(=O)N2CCCC2)C3)c1 (stereo not shown) was Mtb glucose medium: -16.25%; Mtb cholesterol medium: -8.554%.
Result for Cc1cccc(CNC2CCCc3c2cnn3Cc2ccccc2)c1.Cl (stereo not shown) was Mtb glucose medium: 7.891%; Mtb cholesterol medium: -25.82%.
Result for CC(C)NC(=O)C1CCc2nnc(C(C)(C)C)n21 (stereo not shown) was Mtb glucose medium: -3.684%; Mtb cholesterol medium: -17.92%.
Result for c1ccc2oc(CCCN3CCCC3Cn3cncn3)nc2c1 (stereo not shown) was Mtb glucose medium: -18.04%; Mtb cholesterol medium: -11.09%.
Result for COCCn1cnc(-c2cc(C(=O)NC(C)C)c3ccccn23)c1 was Mtb glucose medium: -17.17% & -3.236%; Mtb cholesterol medium: 9.669%.
Result for c1ccc(-c2nnc(CNCCn3cccn3)o2)cc1 was Mtb glucose medium: 7.76%; Mtb cholesterol medium: -4.023%.
Result for O=C1CCCN1CCCC(=O)N1CCCC(Cc2cccnc2)C1 (stereo not shown) was Mtb glucose medium: 27.88%; Mtb cholesterol medium: -1.298%.
Result for Cc1ccc(-c2nc(CN3CCOC(Cn4cccn4)C3)co2)cc1 (stereo not shown) was Mtb glucose medium: 24.55%; Mtb cholesterol medium: 6.452%.
Result for CN(CC1COCCO1)c1ncnc2cc(F)ccc12 (stereo not shown) was Mtb glucose medium: -24.05%; Mtb cholesterol medium: -21.88%.
Result for CN(C)c1ncccc1CNC(=O)N1CCCC1CN1CCCC1 (stereo not shown) was Mtb glucose medium: -34.63%; Mtb cholesterol medium: -21.83%.
Result for COc1ccc(F)cc1S(=O)(=O)N1CCN(CCn2ccnc2)CC1 was Mtb glucose medium: 0.6686%; Mtb cholesterol medium: 4.755%.
Result for CC(C)c1cc(N2CCC(C(C)N3CCCC3)CC2)n2nccc2n1 (stereo not shown) was Mtb glucose medium: 25.28%; Mtb cholesterol medium: 11.87%.
Result for Cc1cccc(C)c1NC(=O)c1cc(S(N)(=O)=O)c(C)o1 was Mtb glucose medium: 10.37%; Mtb cholesterol medium: -4.008% & -34.57%.
Result for CCCOc1cccc(OCc2ccon2)c1 was Mtb glucose medium: 24.25%; Mtb cholesterol medium: 11.46%.
Result for O=C(NCC1CCCO1)c1cc(-c2cccnc2)c2cnccc2n1 (stereo not shown) was Mtb glucose medium: 9.112%; Mtb cholesterol medium: 10.36%.
Result for CC(=O)Nc1ccc(CNC(C)c2c(C)nn(C)c2C)cc1 (stereo not shown) was Mtb glucose medium: -25.15%; Mtb cholesterol medium: 6.023% & -5.627%.
Result for O=C(Nc1ccccc1F)N(CCO)Cc1ccsc1 was Mtb glucose medium: -27.42%; Mtb cholesterol medium: -16.74%.
Result for CCCn1c(C)c(CC(=O)N(C)CCOC)c2c1CC(C)(C)CC2=O was Mtb glucose medium: 11.79%; Mtb cholesterol medium: 3.403%.
Result for CN1C(=O)CC2(CCN(S(=O)(=O)N(C)C)CC2)c2ccccc21 was Mtb glucose medium: -7.442% & 8.011%; Mtb cholesterol medium: 7.667%.
Result for CCOCC(=O)Nc1cc(-n2nnnc2C2CC2)ccc1F was Mtb glucose medium: 8.025% & 4.676%; Mtb cholesterol medium: -4.599%.
Result for CCn1cnnc1CNC(=O)N1CCN(c2ccccc2Cl)CC1 was Mtb glucose medium: -20.5%; Mtb cholesterol medium: -15.11%.
Result for O=C(O)C(F)(F)F.[H][C@@]12CN(C(=O)Cc3cccs3)C[C@]1([H])OCCN2CC1CCCO1 (stereo partly shown) was Mtb glucose medium: -26.01%; Mtb cholesterol medium: -10.34%.
Result for CCN(CC)S(=O)(=O)CC(=O)N1CCc2ccc(F)cc21 was Mtb glucose medium: -9.318%; Mtb cholesterol medium: -1.655%.
Result for COc1cccc(C(C(=O)O)N2CCSCC2)c1F (stereo not shown) was Mtb glucose medium: -38.87%; Mtb cholesterol medium: -15.3%.
Result for CC(C)c1nccn1-c1cccc(C2CCCN2S(=O)(=O)N(C)C)n1 (stereo not shown) was Mtb glucose medium: -12.13%; Mtb cholesterol medium: -21.25%.
Result for [H][C@@]12CNCC[C@]1(O)CCN(c1nccnc1N(C)C)C2 was Mtb glucose medium: -25.35% & -6.02%; Mtb cholesterol medium: -22.88%.
Result for Cc1nc(CNC(=O)NCC(O)c2ccc(F)cc2F)cs1 (stereo not shown) was Mtb glucose medium: -16.74%; Mtb cholesterol medium: -21.07%.

4 of the entries, repeated:

{"structure": "COc1cccc(C(C(=O)O)N2CCSCC2)c1F", "stereo": "stereo not shown", "Mtb glucose medium": -38.87, "Mtb cholesterol medium": -15.3}
{"structure": "O=C(COc1ccc(Cl)cc1)Nc1cnc(N2CCOCC2)nc1", "Mtb glucose medium": -3.958, "Mtb cholesterol medium": 16.55}
{"structure": "O=C(NCC1CCCO1)c1cc(-c2cccnc2)c2cnccc2n1", "stereo": "stereo not shown", "Mtb glucose medium": 9.112, "Mtb cholesterol medium": 10.36}
{"structure": "CCCOc1cccc(OCc2ccon2)c1", "Mtb glucose medium": 24.25, "Mtb cholesterol medium": 11.46}

Measurements from “University of Dundee, Small-Polar-MMV Screening Library” (2021), ChEMBL document CHEMBL3988442.